Two sequences from patent publication US20030049625 can be followed below.

By UniProt entry, the sequences of proteins in these tests, tags left out. Residues count along the entry.
UniProt P0ACJ8, 2-210: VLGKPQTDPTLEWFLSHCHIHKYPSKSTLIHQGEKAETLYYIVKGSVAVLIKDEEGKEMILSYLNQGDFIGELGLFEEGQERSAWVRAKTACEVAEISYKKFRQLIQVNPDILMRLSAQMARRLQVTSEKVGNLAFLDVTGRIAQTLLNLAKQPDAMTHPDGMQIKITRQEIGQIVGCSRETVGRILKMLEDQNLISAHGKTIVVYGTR

Negatives hold for the conditions tested. Construct, isoform or probe ends are uncertain for at least one entry. Whether high values mean tight binding is not given here for every scale.

In the data set the target is CAP (cAMP receptor protein) (Escherichia coli) (UniProt P0ACJ8). The data set is described as follows: binding assay. As to conditions: FRET, purified recombinant protein, letters built from the parent sequence and the stated change.

On to “AACGCAATAAATGTGA / TCTACTTCACATTTATTGCGTT / AGTAGATCACATTTTAGGCACC / GGTGCCTAAAATGTGA [CAP1/CAP4 + CAP2/CAP3]”, for which the binding result ([strand 2: T3 (N, modified T), strand 3: T3 (N, modified T)], no cAMP, no change in fluorescence, label: n = dT-fluorescein (CAP2), dT-dabcyl (CAP4)) is recorded as “no binding”.
In the case of “CTAGATCACATTTTAGGCACCAACGCAATAAATGTGAT / CTAGATCACATTTATTGCGTT / GGTGCCTAAAATGTGAT [CAP7/CAP8/CAP9]”, under “12 x Spacer 18 between bases 21 and 22 of CAP7 [strand 1: T2 (N, modified T), 12 x Spacer 18 between bases 21 and 22 (left out), strand 2: T2 (N, modified T)], 75 nM CAP, 50 nM DNA, 200 uM cAMP, 50 mM NaCl, complete within ~20 s, label: dT-fluorescein (CAP7), dT-dabcyl (CAP8)”, the binding signal was determined as 70 % quenching.
